According to article PMC6155007:
No constants are given. Whether binding was seen depends on the method and setting. Binding seen in cells or lysates may run through a third protein. Some results given as binding are weak or reduced against the parent protein; the word gives no strength. For some of these results: Sequences can lack the tags named with a protein.

What was measured:
GST-RSF1 WT (human) = molecular target: T1, GST-RSF1 WT (human) (UniProt Q96T23); assay: pull-down; recombinant GST-RSF1 proteins incubated with lysates of Flag-HDAC1 expressing asynchronously growing (Asy) or mitotic (M) cells for 2 h at 4 °C; immunoblotting; only the target purified
T1 sequence: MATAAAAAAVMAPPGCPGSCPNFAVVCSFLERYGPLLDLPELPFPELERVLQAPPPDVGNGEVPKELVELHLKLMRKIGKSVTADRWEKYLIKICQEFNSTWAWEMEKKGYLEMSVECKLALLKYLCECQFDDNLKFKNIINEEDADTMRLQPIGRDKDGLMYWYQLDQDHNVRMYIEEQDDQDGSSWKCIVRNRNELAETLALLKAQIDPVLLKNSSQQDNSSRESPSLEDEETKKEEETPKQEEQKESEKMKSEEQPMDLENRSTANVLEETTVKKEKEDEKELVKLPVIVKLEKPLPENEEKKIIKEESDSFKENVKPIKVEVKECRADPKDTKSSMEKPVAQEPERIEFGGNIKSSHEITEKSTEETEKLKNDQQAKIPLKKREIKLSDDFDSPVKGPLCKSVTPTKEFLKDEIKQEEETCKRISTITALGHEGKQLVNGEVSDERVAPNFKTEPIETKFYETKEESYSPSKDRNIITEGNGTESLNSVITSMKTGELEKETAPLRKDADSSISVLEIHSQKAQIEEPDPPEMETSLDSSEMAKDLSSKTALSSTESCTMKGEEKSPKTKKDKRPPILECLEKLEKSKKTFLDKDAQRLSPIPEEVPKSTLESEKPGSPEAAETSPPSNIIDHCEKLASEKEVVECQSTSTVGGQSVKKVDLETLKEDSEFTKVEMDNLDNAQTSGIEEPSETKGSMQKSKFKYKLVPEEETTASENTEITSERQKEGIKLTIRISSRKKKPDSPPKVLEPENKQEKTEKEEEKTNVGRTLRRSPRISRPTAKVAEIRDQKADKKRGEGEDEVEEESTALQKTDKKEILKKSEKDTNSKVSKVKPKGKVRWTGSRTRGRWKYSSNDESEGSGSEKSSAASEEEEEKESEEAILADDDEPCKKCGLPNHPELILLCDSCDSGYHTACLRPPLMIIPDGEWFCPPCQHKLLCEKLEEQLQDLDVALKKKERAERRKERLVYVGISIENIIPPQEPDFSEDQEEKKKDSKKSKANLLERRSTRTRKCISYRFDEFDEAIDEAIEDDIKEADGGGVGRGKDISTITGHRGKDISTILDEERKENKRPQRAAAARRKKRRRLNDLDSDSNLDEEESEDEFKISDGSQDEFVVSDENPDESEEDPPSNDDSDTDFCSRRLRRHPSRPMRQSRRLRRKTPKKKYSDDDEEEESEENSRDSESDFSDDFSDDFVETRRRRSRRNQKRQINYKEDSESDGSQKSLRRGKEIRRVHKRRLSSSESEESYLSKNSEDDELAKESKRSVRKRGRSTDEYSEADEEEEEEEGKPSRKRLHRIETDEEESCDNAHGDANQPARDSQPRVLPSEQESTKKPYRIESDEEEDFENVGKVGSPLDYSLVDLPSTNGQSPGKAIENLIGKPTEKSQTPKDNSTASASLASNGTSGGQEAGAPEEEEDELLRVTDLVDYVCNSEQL

GST-RSF1 C2 (human) = molecular target: T2, GST-RSF1 C2 (human) (UniProt Q96T23); assay: as above
T2 sequence: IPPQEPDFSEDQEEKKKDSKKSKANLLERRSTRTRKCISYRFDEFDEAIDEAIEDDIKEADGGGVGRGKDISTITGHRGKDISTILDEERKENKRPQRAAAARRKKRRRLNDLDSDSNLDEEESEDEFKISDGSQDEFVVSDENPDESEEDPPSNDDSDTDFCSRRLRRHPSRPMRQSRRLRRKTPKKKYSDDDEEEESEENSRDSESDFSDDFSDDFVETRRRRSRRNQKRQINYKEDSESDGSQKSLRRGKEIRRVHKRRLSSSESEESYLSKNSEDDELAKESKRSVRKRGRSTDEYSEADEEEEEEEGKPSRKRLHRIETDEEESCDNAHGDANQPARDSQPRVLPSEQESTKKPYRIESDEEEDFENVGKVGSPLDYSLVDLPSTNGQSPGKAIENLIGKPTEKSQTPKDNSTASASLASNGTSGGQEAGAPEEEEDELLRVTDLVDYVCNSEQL

[1] = molecular target: CENP-A (human (endogenous in HeLa)) (UniProt P49450); assay: co-IP; endogenous CENP-A or POGZ immunoprecipitated from nocodazole arrested RSF1 WT or RSF1 knockout HeLa cells; immunoblotting
[2] = molecular target: T3, POGZ (human (endogenous in HeLa)) (UniProt Q7Z3K3); assay: as above
T3 sequence: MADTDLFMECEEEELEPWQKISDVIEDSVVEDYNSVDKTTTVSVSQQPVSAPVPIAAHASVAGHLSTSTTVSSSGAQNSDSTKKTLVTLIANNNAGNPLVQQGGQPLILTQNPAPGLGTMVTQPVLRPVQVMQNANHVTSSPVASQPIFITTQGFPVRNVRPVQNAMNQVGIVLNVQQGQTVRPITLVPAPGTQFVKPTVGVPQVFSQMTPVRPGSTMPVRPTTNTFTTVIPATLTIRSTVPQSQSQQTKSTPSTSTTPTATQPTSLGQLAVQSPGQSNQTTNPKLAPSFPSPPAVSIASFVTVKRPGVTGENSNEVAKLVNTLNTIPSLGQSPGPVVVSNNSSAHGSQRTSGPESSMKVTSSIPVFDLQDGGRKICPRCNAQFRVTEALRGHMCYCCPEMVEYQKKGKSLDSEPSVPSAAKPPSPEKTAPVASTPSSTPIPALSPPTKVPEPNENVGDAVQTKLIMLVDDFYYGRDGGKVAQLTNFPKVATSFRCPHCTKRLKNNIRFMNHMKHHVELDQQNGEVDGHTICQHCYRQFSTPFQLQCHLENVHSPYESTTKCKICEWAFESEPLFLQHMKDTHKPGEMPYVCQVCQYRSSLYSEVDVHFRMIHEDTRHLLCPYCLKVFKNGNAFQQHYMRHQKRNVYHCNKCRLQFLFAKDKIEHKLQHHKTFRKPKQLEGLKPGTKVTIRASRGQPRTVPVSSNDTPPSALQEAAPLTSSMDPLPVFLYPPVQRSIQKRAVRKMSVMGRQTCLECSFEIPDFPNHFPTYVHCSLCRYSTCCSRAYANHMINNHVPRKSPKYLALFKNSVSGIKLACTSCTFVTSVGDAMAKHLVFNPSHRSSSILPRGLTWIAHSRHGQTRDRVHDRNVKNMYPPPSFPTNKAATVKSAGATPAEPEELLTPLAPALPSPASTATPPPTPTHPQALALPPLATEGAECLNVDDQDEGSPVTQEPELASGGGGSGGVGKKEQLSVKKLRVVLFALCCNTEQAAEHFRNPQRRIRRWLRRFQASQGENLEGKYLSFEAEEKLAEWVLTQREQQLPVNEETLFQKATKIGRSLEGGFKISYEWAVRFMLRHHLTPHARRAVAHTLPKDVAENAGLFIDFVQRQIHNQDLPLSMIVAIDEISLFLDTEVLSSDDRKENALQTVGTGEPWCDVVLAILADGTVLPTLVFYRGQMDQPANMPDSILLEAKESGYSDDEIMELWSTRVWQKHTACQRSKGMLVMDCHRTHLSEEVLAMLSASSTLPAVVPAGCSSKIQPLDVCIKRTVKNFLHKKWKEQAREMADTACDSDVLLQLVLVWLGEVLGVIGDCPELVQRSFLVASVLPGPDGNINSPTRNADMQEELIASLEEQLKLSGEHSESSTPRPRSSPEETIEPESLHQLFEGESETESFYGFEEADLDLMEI

binding (GST-RSF1 WT (human)) | binding (GST-RSF1 C2 (human)) | binding [1] | binding [2] | Substance
binds | binds | – | – | Flag-HDAC1 (from UniProt Q13547 1-482) (enzyme)
– | – | binds | binds | HDAC1 (endogenous) (from UniProt Q13547 1-482) (enzyme)
